Source: article PMC10163288
The other results are listed elsewhere or left out.

B1: il2ra_site2_3nfp_sap_29_mot_HHH_b1_00202_af2_000000102_0001_1_19_H_._HHH_b1_03184_0001_0000300017_0000001_0_0001 (protein)
chain: SSSSDKAEEYIRIALELAKEAIEAGDEESARRLLHVAIAAARDRNDEEILEELERLLEELSSSSS
B2: il2ra_site2_3nfp_normal_mot_HHH_b2_07083_af2_000000083_0001_42_56_H_._HHH_b1_04834_0001_0000100003_0000001_1_af2pred_0001_af2pred_1 (protein)
chain: SSSSDIEERVRELLRQLEEALEEGDEELFEKLAIEVSQLAYEANDPELFAKVAELKIKFGSSSSS
B3: il2ra_site2_2erj_sap_20_mot_HHH_b2_02430_000000062_0001_23_40_H_._HHH_eva_0415_0001_0000900158_0000001_0_0001 (protein)
chain: SSSSDEELHELFRLAVEVLALLANGNPEEAKKVTEELEELIKEQNSEAAEKLLESLEKSFRSSSS
B4: il2ra_site1_2b5i_sap_13_mot_HHH_b2_07160_000000135_0001_1_14_H_._HHH_b1_04051_0001_0000500030_0000001_1_0001_af2pred_dldesign_0_af2pred (protein)
chain: SSSSSLGRRRRELLERADKAFKAEDYELLKELLKEVKELVEKTKRKSDKAILKLIEEALEESSSS
B5: il2ra_site2_2erj_sap_25_mot_28c41ff5ff93e4e540bfc34eab8aed47_0001_af2_000000076_0001_1_17_H_._HHH_b1_01063_0001_0000200007_0000001_0_0001_af2pred_0001_1_af2pred … (protein)
chain: SSSSSSEIEEFVEELVEKFNLSEEQEKQLRLSAKLAKEAGYSDEFVRKWLEIIARLAHESSSSSS
B6: il2ra_site1_1z92_sap_16_mot_HHH_b2_05238_af2_000000252_0001_38_55_H_._HHH_b1_06981_af2_0001_0000200017_0000001_0_0001_af2pred_0001_af2pred_swapped (protein)
chain: SSSSSDEEEREAEKVVRKVVEKFGLDEEEEELLERLAEKLLKLGTSPEAIRHALEKLLELSSSSS
B7: il2ra_site1_2b5i_normal_mot_HHH_b1_07881_af2_000000049_0001_1_19_H_._HHH_b1_05336_af2_0001_0000400019_0000001_0_af2pred_dldesign_0_af2pred (protein)
chain: SSSSSLEDEVYRLYNKALELYKAGKREEAKEVLEKALELAKKAGDSVAVAELEYLLERLKSSSSS
B8: il2ra_site2_2erj_sap_26_mot_HHH_b2_07015_000000077_0001_40_57_H_._HHH_b1_02157_0002_0000200034_0000001_0_0001_af2pred_0001_af2pred (protein)
chain: SSSSSDEQEEAERAADRVIELFEEGNPEEAERLLEELEKELEEAGNEHLLKFVRQVLSYLSSSSS
B9: il2ra_site1_2b5i_sap_21_mot_HHH_b2_08159_000000245_0001_1_21_H_._8ad9ac091cb40d3f9ee7ab2e9a3a3379_0001_0001_0000400039_0000001_0_0001_af2pred_0001_af2pred_1 (protein)
chain: SSSSSELLEEAFELLEEADELAKKGNDEEAEKVLREAEELLEKAGNPSLLRLVRAALRLTSSSSS
B10: il2ra_site1_3nfp_sap_17_mot_HHH_b1_05128_000000175_0001_22_38_H_._HHH_b2_04730_af2_0001_0000200009_0000001_0_0001 (protein)
chain: DKVAKLLIEEAIKQNNELILKRFLEQAERLLGNPEEAKEFLRRAIEELLGDPEEAKEIVREIEER
B11: il2ra_site1_2b5i_sap_16_mot_e4f16f412d24973e63efe4e4a8bb3ce7_0001_1_af2_000000119_0001_1_13_H_._HHH_b1_05763_af2_0001_0000100008_0000001_0_0001 (protein)
chain: SSSSDEEDEEVDRLFHEASRAWREGNPEEAEELLERALELARKIGDPSAAEDIRRFLELVRSSSS
B12: il2ra_site1_1z92_sap_13_mot_7b521abccb2855357a08c3dc921ef1fd_0001_000000147_0001_1_13_H_._HEEHE_3016_0001_0000100013_0000001_0_0001_af2pred_0001_af2pred_1 (protein)
chain: DEAEELAEEARELAERGDPEEALEVLKELLKLLGDPALKFLIEVLERKLKHDEEAAAKLIKKMVR
B13: il2ra_site2_2erj_sap_27_mot_HHH_b1_07741_000000192_0001_1_20_H_._HHH_b1_02897_0001_0000500025_0000001_0_0001 (protein)
chain: SSSSNEDLRELYELMVKILELIQRGDPEEAEKLLERAEELAERLQSESVKEMLEWLRREVNSSSS
B14: il2ra_site1_1z92_sap_5_mot_108be8bf5286040dcbfed5edda487183_0001_000000086_0001_19_33_H_._HHH_b1_01259_af2_0002_0000400030_0000001_0_0001 (protein)
chain: NLERDAEQVLKFAPSPEALRHVLERLLKASGDPEDRKEFIEIVEEIARELGNEELERAAREALEK
B15: il2ra_site2_2erj_sap_13_mot_HHH_b1_07806_000000211_0001_42_56_H_._HHH_b1_08154_af2_0001_0000100006_0000001_0_0001 (protein)
chain: SSSSSDLRELYELANELMHAIARGDEELFEKLVEEIRELAEELDSETAKKILRELEKLARSSSSS
B16: il2ra_site1_3nfp_normal_mot_HHH_b2_08182_af2_000000158_0001_1_17_H_._HHH_b1_00105_af2_0001_0000400016_0000001_0 (protein)
chain: SSSDREEVRRLLERALRLLFEGNEEEVKELVERLRELVEEIGDPSLKRYLEDIEKALEQLGSSSS
B17: il2ra_site2_2erj_sap_17_mot_720936397f2d31669eff21710c18a4fc_0001_000000071_0001_37_51_H_._HHH_b1_05245_af2_0001_0001300031_0000001_0_0001 (protein)
chain: SSSSSDIEQRVQELLEEAVRVQDEERFKKLLEEAEELAEELGDEELKAMIEVLEEYAERLSSSSS
B18: il2ra_site1_1z92_sap_15_mot_HHH_b1_03003_000000182_0001_43_57_H_._HHH_b2_04055_0003_0000200006_0000001_0_0001_af2pred_0001_af2pred (protein)
chain: SSSSEERLEKAAKIVVRIARRINGLSEEQKEKLEELAKELLERGLDREEISRKLDELALRLSSSS

molecular target: il2ra, P01589; test: yeast display titration

Apparent Kd, inactive:
B1 no binding seen
B2 no binding seen
B3 no binding seen
B4 > 487 nM
B5 no binding seen
B6 no binding seen
B7 no binding seen
B8 no binding seen
B9 no binding seen
B10 no binding seen
B11 no binding seen
B12 no binding seen
B13 no binding seen
B14 no binding seen
B15 no binding seen
B16 no binding seen
B17 no binding seen
B18 no binding seen

2 entries drawn at random from those above:
Apparent Kd, inactive:
B16 no binding seen
B12 no binding seen
